{
  "source": "patent US20160089545A1",
  "about": "“METHODS AND APPARATUS FOR DELIVERY OF MOLECULES ACROSS LAYERS OF TISSUE” (EP Technologies LLC, priority 2013, published 2016)",
  "details": "human, 4 h, 10 mg/mL, pH 7.4",
  "note": "Structures can show the parent of a compound that is named as a salt.",
  "data": [
    {"compound": "CCN(CC)CC(=O)Nc1c(C)cccc1C", "note": "[lidocaine hydrochloride]", "values": [
      {"measurement": "factor of enhancement of transdermal delivery as compared with the control", "result": "approximately 4"}
    ]}
  ]
}
